# In article PMC5173251:
# Protein sequences, listed by entry. Tags and fused reporters are not part of them.
# UniProt Q7KWK5: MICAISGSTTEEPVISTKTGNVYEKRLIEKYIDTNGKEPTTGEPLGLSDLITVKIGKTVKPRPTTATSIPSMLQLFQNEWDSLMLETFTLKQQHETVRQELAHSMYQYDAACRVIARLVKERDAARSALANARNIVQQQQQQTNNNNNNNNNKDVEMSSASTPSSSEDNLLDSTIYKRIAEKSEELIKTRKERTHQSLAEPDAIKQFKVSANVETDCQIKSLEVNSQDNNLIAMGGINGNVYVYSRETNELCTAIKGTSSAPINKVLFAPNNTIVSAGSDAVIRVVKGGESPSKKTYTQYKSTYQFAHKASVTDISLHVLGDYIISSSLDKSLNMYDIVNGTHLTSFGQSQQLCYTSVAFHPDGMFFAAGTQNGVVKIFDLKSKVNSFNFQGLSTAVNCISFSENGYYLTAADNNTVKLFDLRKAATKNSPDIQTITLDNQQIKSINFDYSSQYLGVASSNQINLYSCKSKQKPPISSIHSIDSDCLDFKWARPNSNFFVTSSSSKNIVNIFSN
# Target: T1, GFP-DdNKAP (full length DdNKAP, aa 1-510) (D. discoideum) (UniProt Q55ED4)
# T1 sequence: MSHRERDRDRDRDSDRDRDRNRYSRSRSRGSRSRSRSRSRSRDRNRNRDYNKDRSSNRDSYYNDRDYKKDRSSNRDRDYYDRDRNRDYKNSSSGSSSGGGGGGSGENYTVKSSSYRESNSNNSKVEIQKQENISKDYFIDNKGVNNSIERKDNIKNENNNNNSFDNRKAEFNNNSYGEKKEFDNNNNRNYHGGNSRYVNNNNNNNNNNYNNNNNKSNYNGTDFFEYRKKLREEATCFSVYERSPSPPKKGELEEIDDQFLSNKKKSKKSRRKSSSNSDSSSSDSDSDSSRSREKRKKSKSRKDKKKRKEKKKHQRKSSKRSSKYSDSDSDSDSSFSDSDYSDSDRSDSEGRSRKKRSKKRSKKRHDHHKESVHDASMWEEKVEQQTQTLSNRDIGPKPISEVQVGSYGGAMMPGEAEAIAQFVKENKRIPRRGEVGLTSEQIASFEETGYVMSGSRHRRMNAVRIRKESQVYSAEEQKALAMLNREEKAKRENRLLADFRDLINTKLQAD
# Experiment: affinity purification with mass spectrometry; lysate of AX2 cells expressing GFP-DdNKAP, immunoprecipitation with anti-GFP mAb K3-184-2; bands cut from SDS gel and identified by MALDI-MS
substance,measurement,value
Prp19 (endogenous) (from UniProt Q7KWK5 1-514),binding,binds

# These are yes or no findings as the source states them, for the method shown. In cells and extracts the contact can be indirect. A yes stands for co-enrichment or nearness to the bait. Other partners may have been found. Sequences can lack the tags named with a protein.
